Here are results for eleven substances from article PMC4051119, “Bacterial actin MreB forms antiparallel double filaments” (eLife, 2014).

Chains of the proteins cited; added tags and fusions are not shown. Lines headed by an entry give the natural chain unless they say otherwise; changes in a name come on top.
UniProt P0A9X4: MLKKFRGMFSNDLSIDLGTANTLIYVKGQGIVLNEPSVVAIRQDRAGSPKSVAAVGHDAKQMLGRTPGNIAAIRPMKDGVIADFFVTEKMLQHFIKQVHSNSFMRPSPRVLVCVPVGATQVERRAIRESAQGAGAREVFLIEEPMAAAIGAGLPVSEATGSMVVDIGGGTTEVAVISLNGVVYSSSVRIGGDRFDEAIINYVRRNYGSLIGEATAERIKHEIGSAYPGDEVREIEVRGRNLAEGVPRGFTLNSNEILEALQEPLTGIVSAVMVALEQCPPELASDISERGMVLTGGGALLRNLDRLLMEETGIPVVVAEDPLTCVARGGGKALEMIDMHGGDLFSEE

No constants are given. Whether binding was seen depends on the method and setting. Binding seen in cells or lysates may run through a third protein. Some binding calls cover weakened binding; strength is not graded here.

Holding throughout (assay): cross-linking; in vivo in E. coli FB17/pFB112/pFB124, cells at late log phase in PBSG with 5 mM EDTA, 100 µM bismaleimidoethane (BMOE) 10 min on ice, quenched with β-mercaptoethanol; Western blot with α-MreB antibodies
Test [1] concerns the target EcMreB-A125C/C113S/C278S/C324S (E. coli) (UniProt P0A9X4).
Test [2] has as its target EcMreB-D78C/C113S/C278S/C324S (E. coli) (UniProt P0A9X4).
Test [3] addresses EcMreB-E262C/C113S/C278S/C324S (E. coli) (UniProt P0A9X4).
In test [4] the target is EcMreB-F84C/C113S/C278S/C324S (E. coli) (UniProt P0A9X4).
Test [5] has as its target EcMreB-F84C/Q120C/C113S/C278S/C324S (E. coli) (UniProt P0A9X4).
Test [6] concerns the target EcMreB-F84C/R124C/C113S/C278S/C324S (E. coli) (UniProt P0A9X4).
Test [7] addresses EcMreB-K77C/C113S/C278S/C324S (E. coli) (UniProt P0A9X4).
For test [8], the target named is EcMreB-Q120C/C113S/C278S/C324S (E. coli) (UniProt P0A9X4).
Test [9] addresses EcMreB-R124C/C113S/C278S/C324S (E. coli) (UniProt P0A9X4).
In test [10] the target is EcMreB-R188C/C113S/C278S/C324S (E. coli) (UniProt P0A9X4).
The target of test [11] is EcMreB-T119C/C113S/C278S/C324S (E. coli) (UniProt P0A9X4).

As for “EcMreB-A125C/C113S/C278S/C324S (from UniProt P0A9X4 1-347)”, the binding result in test [1] was “binds”.
For the substance “EcMreB-D78C/C113S/C278S/C324S (from UniProt P0A9X4 1-347)”, the binding entry in test [2] is “binds”.
For “EcMreB-E262C/C113S/C278S/C324S (from UniProt P0A9X4 1-347)”, in [3], the binding entry is recorded as “binds”.
As for “EcMreB-F84C/C113S/C278S/C324S (from UniProt P0A9X4 1-347)”, the binding result in test [4] is “binds”.
Take “EcMreB-F84C/Q120C/C113S/C278S/C324S (from UniProt P0A9X4 1-347)”: the binding entry in test [5] is “binds”.
“EcMreB-F84C/R124C/C113S/C278S/C324S (from UniProt P0A9X4 1-347)”: in [6], the binding result is “binds”.
Turning to “EcMreB-K77C/C113S/C278S/C324S (from UniProt P0A9X4 1-347)”, the binding result in [7] is “binds”.
As for “EcMreB-Q120C/C113S/C278S/C324S (from UniProt P0A9X4 1-347)”, the binding result in test [8] is “binds”.
With “EcMreB-R124C/C113S/C278S/C324S (from UniProt P0A9X4 1-347)”, the binding entry in test [9] is reported as “binds”.
As to “EcMreB-R188C/C113S/C278S/C324S (from UniProt P0A9X4 1-347)”, in test [10], the binding entry was “binds”.
With “EcMreB-T119C/C113S/C278S/C324S (from UniProt P0A9X4 1-347)”, in test [11], the binding entry is on record as “binds”.
